The values that follow come from the supplement of paper PMC7024190.

SMILES strings stand for the structures. Structures can show the parent of a compound that is named as a salt. Some of the results follow. Single values are uncertain here, since repeats match poorly.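 A first-round screen of about ten thousand compounds sought those raising reporter output, using human embryonic kidney cells briefly transfected with a plasmid carrying a Renilla luciferase gene driven by the HSV-TK promoter.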

The test system of the assay is HEK 293FT. Briefly: log relative Renilla luciferase luminescence (reporter expression vs reference, reference not stated) (log (base not stated)); higher = higher recombinant reporter expression. Particulars: 10 µM; time after transfection 48 h.
Take `CCC(=O)O[C@H]1CC[C@H]2[C@@H]3CCC4=CC(=O)CC[C@]4(C)[C@H]3CC[C@]12C` [Testosterone propionate]: the log is -0.54.
To `COc1ccc(OC)c(C(O)C(C)N)c1` (stereo not drawn) [Methoxamine hydrochloride] belongs 0.0676; to `O=[N+]([O-])c1cc([As](=O)(O)O)ccc1O` [Roxarsone], 0.0878; to `C[C@]12CC[C@H](O)C[C@@H]1CC[C@@H]1[C@@H]2CC[C@]2(C)C(=O)CC[C@@H]12` [Epiandrosterone], -0.182.
Take `CCn1cc(C(=O)O)c(=O)c2cc3c(cc21)OCO3` [Oxolinic acid]: the log is 0.0753.
To `CN(C)C(=O)Oc1cc(OC(=O)N(C)C)cc(C(O)CNC(C)(C)C)c1` (stereo not drawn) [Bambuterol hydrochloride] belongs -0.416; to `CCN(C)C(=O)Oc1cccc([C@H](C)N(C)C)c1` [Rivastigmine], -0.00821; to `CC[C@@]1([C@@H]2O[C@@H]([C@H]3O[C@@](O)(CO)[C@H](C)C[C@@H]3C)C[C@@H]2C)CC[C@H]([C@]2(C)CC[C@]3(C[C@H](O)[C@@H](C)[C@@H]([C@@H](C)[C@@H](OC)[C@H](C)C(=O)O)O3)O2)O1` [Monensin sodium salt], -0.13.
To `CCC1(c2ccc(N)cc2)CCC(=O)NC1=O` (stereo not drawn) [Glutethimide, para-amino] belongs 0.0824; to `CN1[C@@H]2CC[C@H]1C[C@@H](OC1c3ccccc3CCc3ccccc31)C2` [Deptropine citrate], 0.119.
To `NCC(O)c1ccc(O)cc1` (racemic) [(+,-)-Octopamine hydrochloride] belongs 0.0806; to `CCC1(CC)C(=O)C=CNC1=O` [Pyrithyldione], -0.16.
Take `COc1ccc(Cc2nccc3cc(OC)c(OC)cc23)cc1OC` [Papaverine hydrochloride]: the log was -0.284.
To `Fc1ccc(C(OCCN2CCN(CCCc3ccccc3)CC2)c2ccc(F)cc2)cc1` belongs -0.601; to `CC(C)(C)NCC(O)c1cc(Cl)c(N)c(Cl)c1` (stereo not drawn) [Clenbuterol hydrochloride], -0.0154; to `COc1ccc(CCN2CCC(Nc3nc4ccccc4n3Cc3ccc(F)cc3)CC2)cc1` [Astemizole], 0.0079.
With `CC(=O)O[C@H]1C[C@H](O[C@H]2[C@@H](O)C[C@H](O[C@H]3[C@@H](O)C[C@H](O[C@H]4CC[C@@]5(C)[C@H](CC[C@@H]6[C@@H]5C[C@@H](O)[C@]5(C)[C@@H](C7=CC(=O)OC7)CC[C@]65O)C4)O[C@@H]3C)O[C@@H]2C)O[C@H](C)[C@H]1O[C@@H]1O[C@H](CO)[C@@H](O)[C@H](O)[C@H]1O` [Lanatoside C] the figure was -1.12.
For `CCN(CC)C(C)C(=O)c1ccccc1` (stereo not drawn) [Amfepramone hydrochloride], the log was -0.0293.
With `O[C@@H]1CCCC[C@H]1N1CCC(c2ccccc2)CC1` [L(-)-vesamicol hydrochloride] the figure was 0.172; with `C[C@]12N[C@H](Cc3ccccc31)c1ccccc12` [Dizocilpine maleate], 0.0626.
To `C[N+]1([O-])[C@@H]2C[C@@H](OC(=O)[C@H](CO)c3ccccc3)C[C@H]1[C@@H]1O[C@@H]12` (stereo partly drawn) [Scopolamin-N-oxide hydrobromide] belongs 0.0569; to `Oc1cc(Cl)ccc1Oc1ccc(Cl)cc1Cl` [Triclosan], 0.0896.
With `C[C@@]12N[C@@H](Cc3ccccc31)c1ccccc12` [(-)-MK 801 hydrogen maleate] the figure was 0.0984.
On to `C[N+]12CCC(CC1)C(OC(=O)C(O)(c1ccccc1)c1ccccc1)C2` (stereo not drawn) [Clidinium bromide], for which the log was -0.111.
To `CC(=O)OCC1=C(C(=O)O)N2C(=O)[C@@H](N)[C@H]2SC1` [Cephalosporanic acid, 7-amino] belongs -0.21; to `CO[C@]12C[C@@H](COC(=O)c3cncc(Br)c3)CN(C)[C@@H]1Cc1cn(C)c3cccc2c13` [Nicergoline], 0.163.
To `CC(C)(C)NCC(O)c1ccccc1Cl` (stereo not drawn) [Tulobuterol] belongs 0.0444.
To `C[C@]12Cc3c[nH]nc3C[C@@H]1CC[C@@H]1[C@@H]2CC[C@@]2(C)[C@H]1CC[C@]2(C)O` [Stanozolol] belongs -0.196; to `C[C@@H]1CC[C@H]2[C@@H](C)C(=O)O[C@@H]3O[C@@]4(C)CC[C@@H]1[C@]32OO4` [Artemisinin], 0.0503; to `CCC1(c2cccc(O)c2)CCCCN(C)C1` (stereo not drawn) [Meptazinol hydrochloride], -0.0505.
As to `CCNC1(c2cccs2)CCCCC1=O` (stereo not drawn) [Tiletamine hydrochloride], the log came out at 0.111.
With `COc1cc([C@@H]2c3cc4c(cc3[C@H](O)[C@H]3COC(=O)[C@H]23)OCO4)cc(OC)c1OC` [Podophyllotoxin] the figure was -0.0637.
To `NCCc1c[nH]c2ccc(O)cc12` [Serotonin hydrochloride] belongs -0.15; to `CCN(C(C)=O)c1cccc(-c2ccnc3c(C#N)cnn23)c1` [Zaleplon], 0.0175; to `NC(=O)C[S+]([O-])C(c1ccccc1)c1ccccc1` (stereo not drawn) [Modafinil], -0.0359.
With `CC(=O)NC1CCSC1=O` (racemic) [N-Acetyl-DL-homocysteine Thiolactone] the figure was 0.121; with `CC(Cc1ccccc1)NCCC(c1ccccc1)c1ccccc1` (stereo not drawn) [Prenylamine lactate], 0.109; with `C[C@]12CC[C@H](O)C[C@H]1CC[C@@H]1[C@@H]2C[C@@H](O)[C@]2(C)[C@@H](C3=CC(=O)OC3)CC[C@]12O` [Digoxigenin], -1.52.
On to `CN1CCN(C(=O)OC2c3nccnc3C(=O)N2c2ccc(Cl)cn2)CC1` (stereo not drawn) [Zopiclone], for which the log is -0.07.
In the case of `Clc1ccc(C(OCCN2CCCCC2)c2ccccc2)cc1` (stereo not drawn) [Cloperastine hydrochloride], the log is 0.0275.
With `Cc1cccc(C)c1NC1=NCCCS1` [Xylazine] the figure was -0.172.
To `NC(=O)CN1CCCC1=O` [Piracetam] belongs 0.15; to `COc1cc2c(cc1OC)C(C)NCC2` (stereo not drawn), 0.142; to `CC(C)c1c(CN(C)C(C)Cc2ccccc2)n(C)n(-c2ccccc2)c1=O` (stereo not drawn) [Famprofazone], 0.0984.
With `C=C(C)[C@@H]1[C@H]2OC(=O)[C@@H]1[C@]1(O)C[C@H]3O[C@]34C(=O)O[C@H]2[C@]14C` [Picrotoxinin] the figure was 0.0787; with `O=P1(NCCCl)OCCCN1CCCl` (stereo not drawn) [Ifosfamide], -0.0709.
For the molecule `CC(=O)OCC(=O)[C@H]1CC[C@H]2[C@@H]3CC[C@H]4C[C@H](O)CC[C@]4(C)[C@H]3C(=O)C[C@]12C` [Alfadolone acetate], the log is -0.00821.
To `CC(C)[N+](C)(CCC(C(N)=O)(c1ccccc1)c1ccccc1)C(C)C` [Isopropamide iodide] belongs 0.0406; to `C#C[C@]1(O)CC[C@H]2[C@@H]3CCC4=CC(=O)CC[C@]4(C)[C@H]3CC[C@@]21C` [Ethisterone], -0.0785.
For `O=c1[nH]c2ccccc2n1CCCN1CCC(n2c(=O)[nH]c3cc(Cl)ccc32)CC1` [Domperidone], the log was determined as 0.0996.
To `O=C([O-])c1ccccc1-c1c2cc(Br)c(=O)cc-2oc2[c]([Hg+])c([O-])c(Br)cc12.[Na+].[Na+].[OH-]` [Merbromin] belongs -0.0569; to `CC(C)CC(N(C)C)C1(c2ccc(Cl)cc2)CCC1` (stereo not drawn) [Sibutramine HCl], 0.0619.
To `S=C(NC1CCCCC1)N1CCC(c2cnc[nH]2)CC1` [Thioperamide maleate] belongs -0.00598.
To `COc1ccc2c(c1)[C@]13CCCC[C@@H]1[C@H](C2)N(C)CC3` [Dextromethorphan hydrobromide monohydrate] belongs 0.0437.
Turning to `C=C1[C@@H]2CC[C@H]3[C@]4(C)C[C@H](O[C@@H]5O[C@H](CO)[C@@H](OS(=O)(=O)O)[C@H](OS(=O)(=O)O)[C@H]5OC(=O)CC(C)C)C[C@@H](C(=O)O)[C@H]4CC[C@]3(C2)[C@@H]1O` [Atractyloside potassium salt], the log is -0.264.
To `CC(Cc1ccc(O)cc1)NCC(O)c1cc(O)cc(O)c1` (stereo not drawn) [Fenoterol hydrobromide] belongs -0.372; to `C1CCc2nnnn2CC1` [Pentylenetetrazole], -0.0258; to `C[C@]12CC[C@@H](O)C[C@@H]1CC[C@@H]1[C@@H]2CC[C@]2(C)C(=O)CC[C@@H]12` [Androsterone], -1.34.
Turning to `CNCC(O)c1ccc(O)cc1` (racemic) [(+,-)-Synephrine], the log was 0.0655.
With `O=[N+]([O-])O[C@@H]1CO[C@H]2[C@@H]1OC[C@@H]2O` [Isosorbide mononitrate] the figure was 0.0808.
With `C[C@H](N)[C@H](O)c1ccc(O)c(O)c1` [Levonordefrin] the figure was 0.0481.
For the molecule `CC(C)N(CCC(C(N)=O)(c1ccccc1)c1ccccn1)C(C)C` (stereo not drawn) [Disopyramide], the log stood at 0.0344.
Regarding `CN1[C@@H]2CC[C@H]1C[C@@H](OC(=O)[C@H](CO)c1ccccc1)C2` [Hyoscyamine (L)], the log is 0.0316.
With `COc1ccc(CN2CCNCC2)c(OC)c1OC` [Trimetazidine dihydrochloride] the figure was 0.0806; with `C[C@]12CC[C@H]3[C@@H](CCC4=CC(=O)CC[C@@H]43)[C@@H]1CC[C@@H]2O` [Nandrolone], 0.02.
In the case of `CCC(C)C1O[C@]2(C=C[C@@H]1C)C[C@@H]1CC(C/C=C(\C)[C@@H](OC3C[C@H](OC)[C@@H](OC4C[C@H](OC)[C@@H](O)[C@H](C)O4)[C@H](C)O3)[C@@H](C)/C=C/C=C3\COC4[C@H](O)C(C)=CC(C(=O)O1)[C@]34O)O2` (stereo partly drawn) [Avermectin B1a], the log is -0.0432.
For `CCCN1C[C@H](CSC)C[C@@H]2c3cccc4[nH]cc(c34)C[C@H]21` [Pergolide mesylate], the log stood at 0.104.
To `CCC(=O)O[C@@](Cc1ccccc1)(c1ccccc1)[C@@H](C)CN(C)C` [Levopropoxyphene napsylate] belongs 0.0626; to `CC[C@@]1(O)C(=O)OCc2c1cc1n(c2=O)Cc2cc3ccccc3nc2-1` [Camptothecine (S,+)], -1.17; to `COc1cccc(C2(O)CCCCC2CN(C)C)c1` (stereo not drawn) [Tramadol hydrochloride], 0.187.
With `CC(CCc1ccccc1)NC(C)C(O)c1ccc(O)cc1` (stereo not drawn) [Nylidrin] the figure was -0.05; with `CC(=O)OC1CN2CCC1CC2` (stereo not drawn) [Aceclidine Hydrochloride], -0.621.
With `CN1C[C@H](C(=O)N[C@]2(C)O[C@@]3(O)[C@@H]4CCCN4C(=O)[C@H](Cc4ccccc4)N3C2=O)C[C@@H]2c3cccc4[nH]cc(c34)C[C@H]21` [Dihydroergotamine tartrate], the log amounted to 0.166.
With `C[N+]1(C)[C@@H]2CC[C@H]1C[C@@H](OC(=O)C(CO)c1ccccc1)C2` (stereo partly drawn) [Methylatropine nitrate] the figure was 0.202.
To `C[N+](C)(C)CCCCCCCCCC[N+](C)(C)C` [Decamethonium bromide] belongs 0.0732; to `c1ccc2nc(N3CCNCC3)ccc2c1` [Quipazine dimaleate salt], -0.0206; to `CCN[C@@H](C)Cc1cccc(C(F)(F)F)c1` [Dexfenfluramine hydrochloride], -0.0293.
With `C[CH2][Hg][S]c1ccccc1C(=O)[O-].[Na+]` [Thimerosal] the figure was -0.228.
Consider `C[N+]1(C)CCOC(O)(c2ccc(-c3ccc(C4(O)C[N+](C)(C)CCO4)cc3)cc2)C1` (stereo not drawn) [Hemicholinium bromide], for which the log was -0.352.
To `C[C@]12CCC(=O)C=C1CC[C@@H]1[C@@H]2C(=O)C[C@]2(C)C(=O)CC[C@@H]12` [Adrenosterone] belongs 0.0619; to `COc1ccc(C(=O)N2CCCC2=O)cc1` [Aniracetam], -0.051; to `O=C(O)CCCc1ccc(N(CCCl)CCCl)cc1` [Chlorambucil], 0.0496.
With `CC[C@@H](C(N)=O)N1CCCC1=O` [Levetiracetam] the figure was 0.0159.
